# No constants are given. Whether binding was seen depends on the method and setting. Some results given as binding are weak or reduced against the parent protein; the word gives no strength. Where a sequence is shown, tags or fusion partners need not be part of it.
# B1: FLT-1 Domain 4 Construct 3 (residues 338-429), His-tagged (receptor, not shown: small tags and cut ends)
# chain: HRKQQVLETVAGKRSYRLSMKVKAFPSPEVVWLKDGLPATEKSARYLTRGYSLIIKDVTEEDAGNYTILLSIKQSNVFKNLTATLIVNVKPQ
# B2: FLT-1 Domain 4 Construct 2 (residues 330-440), His-tagged (receptor)
# chain: DKAFITVKHRKQQVLETVAGKRSYRLSMKVKAFPSPEVVWLKDGLPATEKSARYLTRGYSLIIKDVTEEDAGNYTILLSIKQSNVFKNLTATLIVNVKPQIYEKAVSSFPD
# notes: not shown: histidine tag from the E. coli expression vector
# B3: FLT-1 Domain 4 Construct 1 (residues 330-429), His-tagged (receptor)
# chain: DKAFITVKHRKQQVLETVAGKRSYRLSMKVKAFPSPEVVWLKDGLPATEKSARYLTRGYSLIIKDVTEEDAGNYTILLSIKQSNVFKNLTATLIVNVKPQ
# notes: as for B2
# Molecular target: T1, soluble FLT-1 (sFLT-1) (Homo sapiens, UniProt P17948-2 27-687, limits assumed)
# T1 construct: the whole FLT-1 entry is named
# Assay: BIAcore; inhibition of sFLT-1 binding to immobilised 2B2 after pre-incubation
row,binding,Binder
1,binds,B1
2,binds,B2
3,binds,B3
